From patent US20210214435A1

B1: Fab #2 comprising a modified heavy chain constant region (Fab, V domains shown)
VH: QVQLVESGGGLVKPGGSLRLSCAASGFSFSDHYMSWIRQAPGKGLEWVSSVGSEGKFIDYAASVKGRFTISRDNAKNSLYLQMNSLRAEDTAVYYCARHYREFRWHYYYFDYWGQGTLVTVSS
VL: QSVLTQPPSVSGAPGQRVTISCTGSSSNIGAGYDVHWYQQLPGTAPKLLIYGNSNRPSGVPDRFSGSKSGTSASLAITGLQAEDEADYYCQSHDLGAHVWVFGGGTKLTVLG
B2: Fab #4 comprising a modified heavy chain constant region (Fab, V domains shown)
VH: QVQLVQSGAEVKKPGASVKVSCKASGGAFTSSYMHWVRQAPGQGLEWMGIIEPTGASTLYAQRFQGRVTMTRDTSTSTVYMELSSLRSEDTAVYYCARTGIALPLGFDLWGQGTLVTVSS
VL: QSVLTQPPSVSAAPGQKVTISCSGSSSNIGNNYVSWYQQLPGTAPKLLIYDNNKRPSGIPDRFSGSKSGTSATLGITGLQTEDEADYYCAAWSTRFRWVFGGGTKLTVLG
B3: Fab #1 comprising a modified heavy chain constant region (Fab, V domains shown)
VH: QVQLVQSGAEVKKPGASVKVSCKASGYTFTSHYMHWVRQAPGQGLEWMGLIEPSEGETEYAQRFQGRVTMTRDTSTSTVYMELSSLRSEDTAVYYCARDSSRSYPLGFDIWGQGTLVTVSS
VL: QSVLTQPPSVSAAPGQKVTISCSGSSSNIGNNYVSWYQQLPGTAPKLLIYDNNKRPSGIPDRFSGSKSGTSATLGITGLQTEDEADYYCAAWDFRSSRWVFGGGTKLTVLG
B4: Fab #3 comprising a modified heavy chain constant region (Fab, V domains shown)
VH: QVQLVESGGGLVKPGGSLRLSCAASGFSFGDYYVSWIRQAPGKGLEWVSAIGGSGSAVQYAESVKGRFTISRDNAKNSLYLQMNSLRAEDTAVYYCARHYREFRWHYYYFDYWGQGTLVTVSS
VL: B1 VL
B5: Reference Control Antibody RefFab #1 (humanized GPVI antibody of WO2011073954A2, SANOFI) (Fab, V domains shown)
VH: EVQLLESGPGLVAPSGSLSITCTVSGFSLTGYGVNWVRQPPGKGLEWLGMIWGDGSTDYQSTLKSRLSISKDNSKSQVFLKMNSLRTDDTARYYCARDLPMDYWGLGTSVTVSS
VL: DIQMTQSPSSLSASVGGRVTITCKASQDINKYIAWYQHKPGKGPSLLIHYTSTLQPGVPSRFSGSGSGRDYSFSISNLQPEDIATYYCLQYANLLTFGGGTKLEIKR

Each binder was assayed against cynomolgus monkey GPVI on the cell surface of cynomolgus monkey platelets (cynomolgus monkey) (assay: FACS on washed cynomolgus platelets from PRP (one donor), PE-conjugated detection antibody, median fluorescence).

Binder	binding
B1	binds
B2	binds
B3	binds
B4	binds
B5	binds

The binders below were run against cynomolgus monkey GPVI on the cell surface of cynomolgus monkey platelets (cynomolgus monkey) (assay: FACS on platelets from platelet-rich plasma).

Binder	binding
B1	binds
B2	binds
B3	binds
B4	binds

No constants are given. Whether binding was seen depends on the method and setting. A result given as binding can be weak or reduced; the word gives no strength.
